# Source: PubChem BioAssay AID504847 (National Center for Advancing Translational Sciences (NCATS), 2011)
# Sequences of proteins named here, by UniProt entry; tags and fusion partners are left off. A change or cut given only in a name is not applied to a line headed by its entry.
# UniProt P11473: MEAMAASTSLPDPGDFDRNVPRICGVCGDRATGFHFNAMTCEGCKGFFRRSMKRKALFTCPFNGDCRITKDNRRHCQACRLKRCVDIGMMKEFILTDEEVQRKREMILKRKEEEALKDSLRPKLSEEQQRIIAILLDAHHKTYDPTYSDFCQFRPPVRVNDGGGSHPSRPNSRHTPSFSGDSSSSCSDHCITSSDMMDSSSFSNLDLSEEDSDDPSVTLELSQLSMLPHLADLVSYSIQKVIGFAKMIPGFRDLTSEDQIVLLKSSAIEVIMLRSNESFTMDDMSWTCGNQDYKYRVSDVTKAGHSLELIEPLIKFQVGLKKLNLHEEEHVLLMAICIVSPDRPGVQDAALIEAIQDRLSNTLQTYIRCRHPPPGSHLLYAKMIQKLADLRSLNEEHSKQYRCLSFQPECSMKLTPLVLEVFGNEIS
# Out of some 400,000 compounds screened, about 3,700 (0.93%) were called active. The shares of active, inactive and inconclusive entries below differ from those in the screen. The call rests on the fitted dose curve; in most records, active means well fitted inhibition curve with a large enough effect; inconclusive means small, poorly fitted or top-dose-only effect, or another doubt; inactive means no such curve, though single readings can be large or run the other way. A potency beside an inconclusive call is a rough fit, not a confirmed value. Some structures have more than one record in an assay (separate samples or runs), and their calls can disagree.
# Target: Vitamin D3 receptor (Homo sapiens) (UniProt P11473)
# Experiment: Inhibitors of the vitamin D receptor (VDR): qHTS
# Conditions: VDR-SRC2-3 peptide fluorescence polarization, 2 h; max response, negative = inhibition: stronger effect = lower value
# Procedure, shortened: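 VDR–SRC2-3 interaction, FP format. Cmpds 23 nl via pintool, brief spin, 2 h ambient incubation.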
# On the % scale 0 is the no-effect control and ±100 the full control effect; potency means the concentration at half of the fitted maximal effect.
Structure (SMILES),Potency,"max response, negative = inhibition"
N#CC1=C(S)N(c2ccccc2)C(c2ccc(-c3ccc(Cl)c(Cl)c3)o2)NC1=O (stereo not given),active: 56.2 µM,
CCCCc1nc2sc3c(SCCN(C)C)ncnc3c2c2c1CCC2,"inconclusive: 100 µM [inhibitor, single point]",
CSc1nc(N(C)CCO)c2sc3nc(-c4ccco4)c4c(c3c2n1)CCC4,"inconclusive: 89.1 µM [inhibitor, single point]",
CCOC(=O)N1CCN(Cc2c(F)cccc2Cl)CC1,,inactive: 18.1%
CC(=O)Nc1ccc(-c2csc(NCc3ccccc3)n2)cc1,,inactive: -18%
COc1ccccc1CNC(=O)CCCn1c(=O)c2ccccc2n(Cc2ccccc2F)c1=O,,inactive: 7.47%
COc1ccc(S(=O)(=O)/N=C2/C=CC(=O)C(C)=C2C)cc1,"inconclusive: 89.1 µM [inhibitor, single point]",
CC1CCN(C(c2ccc(N(C)C)cc2)c2nnnn2C(C)(C)C)CC1 (stereo not given),active: 50.1 µM,
CC(C)c1ccc(/C=C/C(=O)NC(=S)NN2CCOCC2)cc1,,inactive: -19.4%
CCN(CC(=O)Nc1ccc(OC)cc1)CC(=O)Nc1ccc2c(c1)OCO2,"inconclusive: 56.2 µM [inhibitor, single point]",
O=C(O)CCn1cc(/C=C/C(=O)c2ccc(Cl)cc2)c(-c2ccc(Br)cc2)n1,active: 39.8 µM,
CCC(C)NC(=O)c1ccc2c(SCC(=O)O)c3c(nc2c1)CCCC3 (stereo not given),"inconclusive: 89.1 µM [inhibitor, single point]",
COc1ccc(N2CC(NC(=O)N3CCN(C(=O)c4ccco4)CC3)CC2=O)cc1OC (stereo not given),"inconclusive: 89.1 µM [inhibitor, single point]",
CCN(CCCCO)c1nc(C)nc2c1c(C)c(C)n2-c1c(C)cc(C)cc1C,"inconclusive: 89.1 µM [inhibitor, single point]",
COc1ccc(OCC(O)CNC(=O)Nc2cc(C)cc(C)c2)cc1 (stereo not given),"inconclusive: 100 µM [inhibitor, single point]",
CCc1ccc2nc(N(CCN(C)C)C(=O)/C=C/c3cccs3)sc2c1,,inactive: 1.03%
COc1cc(/C=C/C(=O)c2c(O)cc(C)oc2=O)cc(OC)c1O,active: 22.4 µM,
CCNc1nc(NCC)nc(N/N=C/c2cc(OC)c(OC)c(OC)c2)n1,"inconclusive: 89.1 µM [inhibitor, partial curve, poor fit]",
Cc1ccc(C2(c3ccccc3)NC(=O)N(CC(=O)NC3(C#N)CCCC3)C2=O)cc1C (stereo not given),,inactive: -11.9%
COCCCNC(=O)c1cc(-c2cccnc2)nc2ccc(S(=O)(=O)N3CCC(C)CC3)cc12,,inactive: 12.7%

# Full records, quoted from the list:
# N#CC1=C(S)N(c2ccccc2)C(c2ccc(-c3ccc(Cl)c(Cl)c3)o2)NC1=O (stereo not given) reads Potency: active: 56.2 µM
# CCNc1nc(NCC)nc(N/N=C/c2cc(OC)c(OC)c(OC)c2)n1 reads Potency: inconclusive: 89.1 µM [inhibitor, partial curve, poor fit]
